No constants are given. Whether binding was seen depends on the method and setting. Binding seen in cells or lysates may run through a third protein. Here binding means that the protein was enriched with, or labelled near, the bait; the list need not be complete. Tags and fused reporters may be left off the sequences shown.
Target: T1, FLAG-HA-Rbm10 (S. pombe) (UniProt P87143)
T1 sequence: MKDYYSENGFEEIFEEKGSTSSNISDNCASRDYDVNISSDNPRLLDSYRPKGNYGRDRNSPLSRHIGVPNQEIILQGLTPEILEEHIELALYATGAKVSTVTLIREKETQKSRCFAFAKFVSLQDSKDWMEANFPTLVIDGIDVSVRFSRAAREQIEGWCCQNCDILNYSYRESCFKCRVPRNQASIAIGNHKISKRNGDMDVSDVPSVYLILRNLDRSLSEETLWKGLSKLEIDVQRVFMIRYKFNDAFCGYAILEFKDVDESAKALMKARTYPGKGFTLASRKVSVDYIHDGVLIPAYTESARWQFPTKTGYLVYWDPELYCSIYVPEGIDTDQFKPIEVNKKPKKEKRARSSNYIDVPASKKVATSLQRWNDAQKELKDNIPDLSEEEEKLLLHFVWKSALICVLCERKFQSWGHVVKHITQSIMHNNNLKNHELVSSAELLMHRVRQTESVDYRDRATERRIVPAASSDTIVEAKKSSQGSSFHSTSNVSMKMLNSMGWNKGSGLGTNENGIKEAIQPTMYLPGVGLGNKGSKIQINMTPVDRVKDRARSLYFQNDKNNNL
Test: affinity purification with mass spectrometry; two-step purification (anti-FLAG beads, 3xFLAG peptide elution, then uMACS HA magnetic beads) of overexpressed FLAG-HA-Rbm10 from S. pombe lysate with Benzonase; three independent purifications; control purification from an untagged strain

Sequences of proteins named here, by UniProt entry; tags and fusion partners are left off. A change or cut given only in a name is not applied to a line headed by its entry.
UniProt O14187: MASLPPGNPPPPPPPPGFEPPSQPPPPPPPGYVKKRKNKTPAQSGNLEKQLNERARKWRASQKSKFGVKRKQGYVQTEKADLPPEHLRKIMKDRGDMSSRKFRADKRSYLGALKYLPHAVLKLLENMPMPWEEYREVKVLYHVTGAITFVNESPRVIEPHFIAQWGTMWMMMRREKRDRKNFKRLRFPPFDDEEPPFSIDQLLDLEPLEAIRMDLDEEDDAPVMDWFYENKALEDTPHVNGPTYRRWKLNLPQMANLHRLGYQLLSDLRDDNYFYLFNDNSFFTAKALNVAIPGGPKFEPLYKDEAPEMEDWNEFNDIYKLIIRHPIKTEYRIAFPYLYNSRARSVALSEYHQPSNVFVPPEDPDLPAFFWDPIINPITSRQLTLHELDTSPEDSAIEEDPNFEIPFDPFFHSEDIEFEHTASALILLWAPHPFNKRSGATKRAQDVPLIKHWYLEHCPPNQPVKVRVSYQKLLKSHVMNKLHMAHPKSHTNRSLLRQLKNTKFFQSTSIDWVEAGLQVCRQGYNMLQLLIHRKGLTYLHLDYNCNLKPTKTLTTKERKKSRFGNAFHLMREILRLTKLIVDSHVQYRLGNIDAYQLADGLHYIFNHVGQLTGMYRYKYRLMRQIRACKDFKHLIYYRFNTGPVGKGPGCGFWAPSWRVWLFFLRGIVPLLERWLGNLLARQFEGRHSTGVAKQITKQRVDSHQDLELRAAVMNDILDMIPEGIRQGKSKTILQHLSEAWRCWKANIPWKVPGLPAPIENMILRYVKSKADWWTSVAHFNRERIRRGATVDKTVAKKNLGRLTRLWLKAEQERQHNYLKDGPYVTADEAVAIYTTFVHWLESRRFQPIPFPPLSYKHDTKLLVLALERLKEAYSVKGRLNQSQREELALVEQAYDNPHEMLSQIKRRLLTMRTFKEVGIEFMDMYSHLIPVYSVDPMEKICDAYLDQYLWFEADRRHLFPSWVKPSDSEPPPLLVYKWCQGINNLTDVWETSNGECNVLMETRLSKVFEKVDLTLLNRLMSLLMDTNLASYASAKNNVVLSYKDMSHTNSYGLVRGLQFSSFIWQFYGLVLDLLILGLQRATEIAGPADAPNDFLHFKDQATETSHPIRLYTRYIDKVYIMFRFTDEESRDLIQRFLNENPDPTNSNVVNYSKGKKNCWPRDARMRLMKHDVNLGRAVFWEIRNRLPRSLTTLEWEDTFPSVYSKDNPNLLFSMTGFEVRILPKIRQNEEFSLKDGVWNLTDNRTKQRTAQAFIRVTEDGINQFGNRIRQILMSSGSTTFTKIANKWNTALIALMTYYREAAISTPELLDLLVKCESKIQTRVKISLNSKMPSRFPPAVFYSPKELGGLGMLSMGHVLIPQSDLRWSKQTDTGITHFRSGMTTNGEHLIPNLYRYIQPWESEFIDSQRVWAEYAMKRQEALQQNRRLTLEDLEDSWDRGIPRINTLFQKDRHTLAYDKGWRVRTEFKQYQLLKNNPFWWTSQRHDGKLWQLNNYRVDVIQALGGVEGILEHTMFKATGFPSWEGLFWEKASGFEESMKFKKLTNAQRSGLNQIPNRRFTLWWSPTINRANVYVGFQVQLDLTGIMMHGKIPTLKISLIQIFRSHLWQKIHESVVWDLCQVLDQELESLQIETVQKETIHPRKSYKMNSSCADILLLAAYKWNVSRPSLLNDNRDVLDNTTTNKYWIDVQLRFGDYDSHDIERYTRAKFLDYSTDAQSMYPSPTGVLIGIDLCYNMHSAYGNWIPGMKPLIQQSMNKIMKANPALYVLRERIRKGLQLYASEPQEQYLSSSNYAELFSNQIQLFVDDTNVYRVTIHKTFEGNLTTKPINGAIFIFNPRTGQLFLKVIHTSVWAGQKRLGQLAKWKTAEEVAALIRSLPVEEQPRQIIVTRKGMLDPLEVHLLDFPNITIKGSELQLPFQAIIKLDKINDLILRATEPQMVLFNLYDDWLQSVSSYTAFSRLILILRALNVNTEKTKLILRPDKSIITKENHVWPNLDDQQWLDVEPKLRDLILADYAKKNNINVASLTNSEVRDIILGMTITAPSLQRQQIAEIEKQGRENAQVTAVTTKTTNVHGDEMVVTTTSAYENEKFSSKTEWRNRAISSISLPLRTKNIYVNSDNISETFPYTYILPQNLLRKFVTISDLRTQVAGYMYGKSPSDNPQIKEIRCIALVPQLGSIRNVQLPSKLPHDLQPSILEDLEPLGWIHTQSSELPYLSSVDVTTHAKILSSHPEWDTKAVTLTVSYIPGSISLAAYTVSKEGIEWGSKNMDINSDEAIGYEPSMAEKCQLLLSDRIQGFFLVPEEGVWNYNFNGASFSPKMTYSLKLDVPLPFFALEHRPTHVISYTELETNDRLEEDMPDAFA
UniProt Q9UT24: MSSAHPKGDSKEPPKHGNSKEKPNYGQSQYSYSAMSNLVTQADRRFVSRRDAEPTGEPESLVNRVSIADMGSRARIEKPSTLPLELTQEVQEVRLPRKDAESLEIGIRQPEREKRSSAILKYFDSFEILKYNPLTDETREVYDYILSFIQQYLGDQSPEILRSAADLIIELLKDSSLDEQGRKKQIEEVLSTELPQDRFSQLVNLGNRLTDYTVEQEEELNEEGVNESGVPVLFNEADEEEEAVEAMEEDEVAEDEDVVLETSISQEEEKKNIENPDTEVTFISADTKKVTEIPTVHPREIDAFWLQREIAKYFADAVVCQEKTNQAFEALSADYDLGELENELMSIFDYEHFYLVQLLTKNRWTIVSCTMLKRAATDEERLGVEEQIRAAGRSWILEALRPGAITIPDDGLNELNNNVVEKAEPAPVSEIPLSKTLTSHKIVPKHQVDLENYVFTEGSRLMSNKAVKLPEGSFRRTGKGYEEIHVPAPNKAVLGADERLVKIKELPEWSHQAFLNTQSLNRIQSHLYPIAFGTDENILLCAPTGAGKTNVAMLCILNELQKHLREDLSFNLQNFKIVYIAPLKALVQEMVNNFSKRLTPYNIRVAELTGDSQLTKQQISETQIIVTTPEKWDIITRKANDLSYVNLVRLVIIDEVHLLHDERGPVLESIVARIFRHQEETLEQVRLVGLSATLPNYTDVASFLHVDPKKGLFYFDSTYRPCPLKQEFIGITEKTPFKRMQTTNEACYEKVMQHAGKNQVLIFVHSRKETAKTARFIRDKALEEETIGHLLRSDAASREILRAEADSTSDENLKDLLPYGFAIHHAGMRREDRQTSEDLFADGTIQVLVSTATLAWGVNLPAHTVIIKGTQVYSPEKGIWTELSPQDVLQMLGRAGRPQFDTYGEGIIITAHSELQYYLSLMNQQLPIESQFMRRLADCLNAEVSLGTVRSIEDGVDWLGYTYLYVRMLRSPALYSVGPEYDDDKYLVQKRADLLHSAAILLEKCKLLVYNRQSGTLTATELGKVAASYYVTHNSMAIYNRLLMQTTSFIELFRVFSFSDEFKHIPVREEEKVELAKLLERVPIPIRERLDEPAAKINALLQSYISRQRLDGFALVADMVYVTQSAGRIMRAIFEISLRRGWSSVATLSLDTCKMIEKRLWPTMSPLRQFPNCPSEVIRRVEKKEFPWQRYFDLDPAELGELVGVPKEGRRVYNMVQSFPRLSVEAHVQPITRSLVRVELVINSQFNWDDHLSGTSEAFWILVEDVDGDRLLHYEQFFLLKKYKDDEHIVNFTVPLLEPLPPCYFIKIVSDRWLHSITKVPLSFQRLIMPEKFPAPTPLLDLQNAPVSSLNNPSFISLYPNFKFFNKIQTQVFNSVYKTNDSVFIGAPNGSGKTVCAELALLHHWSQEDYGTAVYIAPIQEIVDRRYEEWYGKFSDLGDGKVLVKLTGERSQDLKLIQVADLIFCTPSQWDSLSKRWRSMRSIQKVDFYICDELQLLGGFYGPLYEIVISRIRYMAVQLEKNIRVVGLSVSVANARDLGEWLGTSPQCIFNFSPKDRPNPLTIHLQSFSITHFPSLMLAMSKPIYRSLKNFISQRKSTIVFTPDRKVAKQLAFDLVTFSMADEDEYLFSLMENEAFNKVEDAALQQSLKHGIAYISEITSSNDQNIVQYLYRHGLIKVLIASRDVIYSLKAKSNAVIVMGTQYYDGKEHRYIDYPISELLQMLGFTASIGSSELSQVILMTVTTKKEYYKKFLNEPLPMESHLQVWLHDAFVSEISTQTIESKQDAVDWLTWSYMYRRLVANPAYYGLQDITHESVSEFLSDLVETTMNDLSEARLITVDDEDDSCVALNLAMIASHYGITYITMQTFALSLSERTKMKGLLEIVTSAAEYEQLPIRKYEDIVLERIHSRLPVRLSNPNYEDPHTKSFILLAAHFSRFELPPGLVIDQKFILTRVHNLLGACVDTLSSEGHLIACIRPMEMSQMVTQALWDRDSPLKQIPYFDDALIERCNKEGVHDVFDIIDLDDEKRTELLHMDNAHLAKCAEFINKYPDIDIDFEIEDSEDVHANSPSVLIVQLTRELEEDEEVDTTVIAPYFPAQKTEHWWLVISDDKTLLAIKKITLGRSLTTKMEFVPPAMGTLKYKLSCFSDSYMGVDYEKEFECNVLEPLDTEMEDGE
UniProt O74970: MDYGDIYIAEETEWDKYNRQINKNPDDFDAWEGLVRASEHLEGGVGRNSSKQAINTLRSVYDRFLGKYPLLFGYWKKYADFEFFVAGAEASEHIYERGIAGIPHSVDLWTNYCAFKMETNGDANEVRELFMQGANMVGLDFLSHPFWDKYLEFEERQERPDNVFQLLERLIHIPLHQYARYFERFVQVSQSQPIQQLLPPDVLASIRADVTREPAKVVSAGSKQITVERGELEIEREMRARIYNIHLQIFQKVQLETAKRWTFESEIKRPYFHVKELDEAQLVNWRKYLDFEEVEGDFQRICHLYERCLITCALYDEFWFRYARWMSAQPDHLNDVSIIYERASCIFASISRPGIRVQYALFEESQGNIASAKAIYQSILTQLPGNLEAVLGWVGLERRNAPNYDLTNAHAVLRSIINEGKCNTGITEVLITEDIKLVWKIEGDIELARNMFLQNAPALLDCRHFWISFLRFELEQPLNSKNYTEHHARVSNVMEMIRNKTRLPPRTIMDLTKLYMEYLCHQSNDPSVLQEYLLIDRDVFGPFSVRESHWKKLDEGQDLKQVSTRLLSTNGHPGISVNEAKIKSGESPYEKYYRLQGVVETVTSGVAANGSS
UniProt O59670: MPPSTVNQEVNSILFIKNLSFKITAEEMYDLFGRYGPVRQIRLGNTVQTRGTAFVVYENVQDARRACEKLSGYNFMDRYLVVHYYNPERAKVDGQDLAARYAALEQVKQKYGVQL
UniProt O42945: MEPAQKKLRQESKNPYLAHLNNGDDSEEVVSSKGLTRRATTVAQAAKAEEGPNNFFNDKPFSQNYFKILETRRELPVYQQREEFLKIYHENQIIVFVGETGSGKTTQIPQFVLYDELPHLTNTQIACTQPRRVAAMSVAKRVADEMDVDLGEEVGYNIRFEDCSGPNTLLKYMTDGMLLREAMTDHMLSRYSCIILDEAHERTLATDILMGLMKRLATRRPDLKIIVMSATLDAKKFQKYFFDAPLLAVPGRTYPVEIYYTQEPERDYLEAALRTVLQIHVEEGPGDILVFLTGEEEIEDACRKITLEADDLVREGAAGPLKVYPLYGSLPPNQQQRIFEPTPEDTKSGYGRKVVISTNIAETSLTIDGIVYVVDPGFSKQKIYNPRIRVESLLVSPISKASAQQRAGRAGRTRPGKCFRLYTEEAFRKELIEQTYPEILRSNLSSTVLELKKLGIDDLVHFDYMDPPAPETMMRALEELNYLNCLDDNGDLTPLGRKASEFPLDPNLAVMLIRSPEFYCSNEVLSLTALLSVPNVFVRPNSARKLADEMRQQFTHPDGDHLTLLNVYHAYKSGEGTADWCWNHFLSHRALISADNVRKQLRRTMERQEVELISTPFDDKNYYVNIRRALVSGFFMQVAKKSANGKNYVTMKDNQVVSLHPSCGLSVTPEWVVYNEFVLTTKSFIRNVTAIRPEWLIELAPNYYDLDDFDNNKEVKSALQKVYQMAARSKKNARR
UniProt Q9UTC7: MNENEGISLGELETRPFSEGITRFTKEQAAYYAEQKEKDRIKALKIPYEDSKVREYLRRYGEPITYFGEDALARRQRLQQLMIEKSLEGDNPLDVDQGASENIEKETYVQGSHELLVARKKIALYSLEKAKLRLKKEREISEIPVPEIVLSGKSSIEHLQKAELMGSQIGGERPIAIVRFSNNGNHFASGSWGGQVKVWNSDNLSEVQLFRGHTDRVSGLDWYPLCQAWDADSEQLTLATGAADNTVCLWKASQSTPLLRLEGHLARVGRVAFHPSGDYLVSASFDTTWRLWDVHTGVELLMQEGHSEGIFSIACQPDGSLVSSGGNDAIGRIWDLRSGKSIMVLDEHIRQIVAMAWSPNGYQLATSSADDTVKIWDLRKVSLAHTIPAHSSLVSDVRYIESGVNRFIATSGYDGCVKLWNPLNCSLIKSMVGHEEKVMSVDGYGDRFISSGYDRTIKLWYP

binding | Substance
binds | Dbl8 (S. pombe (endogenous in S. pombe cells))
binds | Usp104 (S. pombe (endogenous in S. pombe cells))
binds | Spp42 (from UniProt O14187 1-2363)
binds | Brr2 (from UniProt Q9UT24 1-2176)

Second part, the substance before the results:

Substance | binding
CHD1/Hrp3 (from UniProt O14139 1-1388) | binds
Ccq1 (from UniProt Q10432 1-735) | binds
Usp105 (from UniProt O74970) | binds
Sap14 (from UniProt O59670) | binds
Prp43 (from UniProt O42945 1-735) | binds
Rna4 (from UniProt Q9UTC7) | binds
Uhp1 (S. pombe (endogenous in S. pombe cells)) | binds
